These are yes or no findings as the source states them, for the method shown. Binding seen in cells or lysates may run through a third protein. Some results given as binding are weak or reduced against the parent protein; the word gives no strength.
T1: Mini-Ph (Drosophila melanogaster) (UniProt P39769)
T1 sequence: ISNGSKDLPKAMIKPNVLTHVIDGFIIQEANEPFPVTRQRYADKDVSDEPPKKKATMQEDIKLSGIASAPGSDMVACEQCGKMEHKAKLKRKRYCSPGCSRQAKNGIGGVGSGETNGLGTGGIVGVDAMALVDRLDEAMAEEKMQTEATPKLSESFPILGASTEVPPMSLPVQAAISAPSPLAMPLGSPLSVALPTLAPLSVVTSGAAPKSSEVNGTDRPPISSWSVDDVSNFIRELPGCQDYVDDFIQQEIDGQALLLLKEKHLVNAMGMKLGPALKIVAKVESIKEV

Chains of the proteins cited; added tags and fusions are not shown.
UniProt P35820: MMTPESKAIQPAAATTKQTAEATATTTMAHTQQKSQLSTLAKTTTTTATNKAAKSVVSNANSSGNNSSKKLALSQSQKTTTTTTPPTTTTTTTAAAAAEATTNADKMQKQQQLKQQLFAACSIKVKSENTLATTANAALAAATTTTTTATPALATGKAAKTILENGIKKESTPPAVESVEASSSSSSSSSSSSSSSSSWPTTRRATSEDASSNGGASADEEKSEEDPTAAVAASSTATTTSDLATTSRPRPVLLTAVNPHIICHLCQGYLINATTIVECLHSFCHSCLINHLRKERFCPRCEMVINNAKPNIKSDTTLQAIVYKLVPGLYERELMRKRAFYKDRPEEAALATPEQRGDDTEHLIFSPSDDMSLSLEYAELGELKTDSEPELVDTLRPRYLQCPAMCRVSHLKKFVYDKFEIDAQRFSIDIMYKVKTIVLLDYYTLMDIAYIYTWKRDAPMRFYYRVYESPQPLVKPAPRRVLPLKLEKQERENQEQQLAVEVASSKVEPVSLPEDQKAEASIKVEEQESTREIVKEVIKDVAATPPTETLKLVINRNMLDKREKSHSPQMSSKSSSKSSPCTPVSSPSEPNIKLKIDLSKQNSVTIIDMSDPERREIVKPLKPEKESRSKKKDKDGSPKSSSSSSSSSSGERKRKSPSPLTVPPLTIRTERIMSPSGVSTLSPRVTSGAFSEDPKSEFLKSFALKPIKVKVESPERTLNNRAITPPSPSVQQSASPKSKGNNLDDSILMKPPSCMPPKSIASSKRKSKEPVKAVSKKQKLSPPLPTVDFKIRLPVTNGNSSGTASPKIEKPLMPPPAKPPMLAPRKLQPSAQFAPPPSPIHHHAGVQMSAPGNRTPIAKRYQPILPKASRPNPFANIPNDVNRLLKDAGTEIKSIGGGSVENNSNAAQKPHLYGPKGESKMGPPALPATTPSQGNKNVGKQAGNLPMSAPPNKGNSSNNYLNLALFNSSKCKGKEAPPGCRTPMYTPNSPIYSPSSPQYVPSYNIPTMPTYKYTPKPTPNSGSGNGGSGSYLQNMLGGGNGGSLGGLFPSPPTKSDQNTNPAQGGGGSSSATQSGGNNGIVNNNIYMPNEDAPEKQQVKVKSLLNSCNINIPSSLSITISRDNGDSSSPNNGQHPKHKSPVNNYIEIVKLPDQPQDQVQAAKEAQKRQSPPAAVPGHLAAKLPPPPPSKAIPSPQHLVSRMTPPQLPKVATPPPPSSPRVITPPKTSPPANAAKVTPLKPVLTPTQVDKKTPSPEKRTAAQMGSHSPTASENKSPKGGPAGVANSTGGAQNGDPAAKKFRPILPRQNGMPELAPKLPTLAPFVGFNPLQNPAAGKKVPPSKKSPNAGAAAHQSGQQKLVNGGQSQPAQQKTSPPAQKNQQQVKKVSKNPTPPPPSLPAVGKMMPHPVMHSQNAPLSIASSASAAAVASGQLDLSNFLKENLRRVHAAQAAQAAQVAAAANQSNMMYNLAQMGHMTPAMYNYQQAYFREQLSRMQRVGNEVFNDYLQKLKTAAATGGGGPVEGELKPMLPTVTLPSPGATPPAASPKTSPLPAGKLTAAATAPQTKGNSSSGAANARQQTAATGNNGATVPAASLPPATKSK
UniProt Q24572: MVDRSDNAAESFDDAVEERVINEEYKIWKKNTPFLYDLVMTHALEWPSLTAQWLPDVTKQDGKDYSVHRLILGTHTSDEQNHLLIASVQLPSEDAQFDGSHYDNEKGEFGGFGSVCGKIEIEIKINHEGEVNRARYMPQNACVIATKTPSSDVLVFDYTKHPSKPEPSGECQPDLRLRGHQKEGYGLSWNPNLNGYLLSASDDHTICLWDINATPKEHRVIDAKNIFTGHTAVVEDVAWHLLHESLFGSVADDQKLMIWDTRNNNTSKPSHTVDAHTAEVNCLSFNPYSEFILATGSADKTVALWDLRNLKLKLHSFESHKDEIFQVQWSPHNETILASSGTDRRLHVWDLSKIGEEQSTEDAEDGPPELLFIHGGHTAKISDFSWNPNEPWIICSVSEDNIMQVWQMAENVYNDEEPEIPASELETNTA


Assays:
[1] = target: T1, Mini-Ph (Drosophila melanogaster); assay: co-sedimentation; 7.5 µM Mini-Ph with or without chromatin (80 nM nucleosomes) in 20 mM Tris pH 8.0, 50 mM NaCl, 10 min at room temperature, then S2R+ nuclear extract (still contains RNA) added; after 60 min total condensates pelleted 2 min at 2500g, 4 °C; pellets and supernatants analysed by Western blot; only the target purified
[2] = target: Flag-PSC (Drosophila) (UniProt P35820); assay: co-IP; anti-FLAG beads, nuclear extracts of Sf9 cells co-infected for 3 days; wash with 2 M KCl + 1 M urea; incubation with 4 mM ATP + 4 mM MgCl2 in BC300N; eluted with 0.4 mg/ml FLAG

Row | Molecule | binding [1] | binding [2]
1 | p55 (from UniProt Q24572 1-430) | no binding | 
2 | Pc (protein, UniProt P26017 1-390) MTGRGKGSKGKLGRDNATDDPVDLVYAAEKIIQKRVKKGVVEYRVKWKGWNQRYNTWEPEVNILDRRLIDIYEQTNKSSGTPSKRGIKKKEKEPDPEPESEEDEYTFTENDVDTHQATTSSATHDKESKKEKKHHHHHHHHHHIKSERNSGRRSESPLTHHHHHHHHESKRQRIDHSSSSNSSFTHNSFVPEPDSNSSSSEDQPLIGTKRKAEVLKESGKIGVTIKTSPDGPTIKPQPTQQVTPSQQQPFQDQQQAEKIASEAATQLKSEQQATPLATEAINTTPAESGAEEEEVANEEGNQQAPQVPSENNNIPKPCNNLAINQKQPLTPLSPRALPPRFWLPAKCNISNRVVITDVTVNLETVTIRECKTERGFFRERDMKGDSSPVA |  | binds
3 | dRING (protein, UniProt Q9VB08 1-435) MTSLDPAPNKTWELSLYELQRKPQEVITDSTEIAVSPRSLHSELMCPICLDMLKKTMTTKECLHRFCSDCIVTALRSGNKECPTCRKKLVSKRSLRADPNFDLLISKIYPSREEYEAIQEKVMAKFNQTQSQQALVNSINEGIKLQSQNRPQRFRTKGGGGGGGGGGNGNGAANVAAPPAPGAPTAVGRNASNQMHVHDTASNDSNSNTNSIDRENRDPGHSGTSAASAITSASNAAPSSSANSGASTSATRMQVDDASNPPSVRSTPSPVPSNSSSSKPKRAMSVLTSERSEESESDSQMDCRTEGDSNIDTEGEGNGELGINDEIELVFKPHPTEMSADNQLIRALKENCVRYIKTTANATVDHLSKYLAMRLTLDLGADLPEACRVLNFCIYVAPQPQQLVILNGNQTLHQVNDKFWKVNKPMEMYYSWKKT |  | binds
4 | Su(Z)12 (protein, UniProt Q9NJG9 1-900) MAPAKKREKDSNPDGSAANGIIGLTHGAPDASNAGSTVPPTAEGQVKLNGHQQEQELFLQAFEKPTQIYRYLRNRHETNPIFLNRTLSYMKERMSRNNKKRISFQVNSMLESITQKSEAVSQNYLHVIYDSLHEKLPARLDNESGEDLLQEQLLCEAGESVSVETTLYKITRSKRKDSTLDFQELLSKCSQIVYNPKDRVGEHATISIPLQTMRPMGEQHTLYKLLFRIKVLSPSTCNDENAETPPNKRSRPNEKMFGSELILYEKSSGFITEGEYEAMLQPLNSTSIKSFSPKKCTWETMPDSYIPLSLTYDVYQQSPMLKFHLTLSNEQLPEMISAPELQRYVQHLDAVAEMNYNNNNYNNNNNCSGLKNGSGGGNSTVCKTTPEHIQIVYNFMYSNNTRQQTEYTQELNCPWCGLDCLRLYALLKHLKLCHARFNFTYQPAGSGARIDVTINDAYDGSYAGSPYDLAGPSGSSFARTCGPVRRTSVTSLMVCRPRRQKTCLDEFLELDEDEISNQRSYITGHNRLYHHTETCLPVHPKELDIDSEGESDPLWLRQKTIQMIDEFSDVNEGEKELMKLWNLHVMRHGFVGDCQLPIACEMFLDAKGTEIVRKNLYRNFILHMCSLFDYGLIAAETVYKTVQKLQGLLSKYAAGQELMQRQREEQLKYWLDVGMHKKQEDPKTLKSPQKPAPPADQASTSSASTSGSGSGSSSMQPPKRMPAHLKRGSAASSPGVQSKGTENGTNGSNSSSSNSKNVAKKSADQPLSTLANTRERRSEYGQKRNVSGSRLAATPASKRKLSSKDNTVLNKRQRYSDGSPGTGIGNGHGGGSGSGANRNKSNNHSLPATSNNASSSSSNSKRAIARRRSTSERTKASGSTGGGAGGVRTRLSVPAKYERR | no binding | 
5 | ACF1 (protein, UniProt Q9V9T4 1-1476) MPICKREGFDLNQKEGKNETFHDNDQVFCCYITKRIFRDYEHYFRHVMVINSTVWQCEATGKENLTYEEAVKSERAARKKMEQFKQSLRAPVLLVVEHAQQSAVNTLNMIVAKFLRKRYFIGEEVSVQAKKNATYTVLGVKLDKNMPEPLNGIYEDTDNLVYRLRPNKGDPSAELDLPFRQLRRSRMEFNLENLSMFIKSNVSRVDGLLRPKPEAYKQYVTDPGVNFSTIFIGKMPRYSPAKIKKPDGKKQSTLNKYIVAGEATAAKSKAKAKSDAKSLAEELERVKREKEAKLIELEKQKAEKKAQLIERVENECNLLLQKTDDLERTDQKVLPRYRQIVTLLPEHLLGDAFMMREFMHTYTGLLSGIEVFRQNLSFYEMTRALTAREIAGPLSDILLVLLGTVFDLQKEEEEECAVTYLDRAAQTQEPYWSMAQAAKSHLYAKRHFSFKVNELPLDALTLSEVLRLHLLGSGAFVNEKAERWRVMYRNGYSSKEDPGLELRLEHSHILRILKNHSVYQLKFKDIMLLIRCLMSQIMTYSGTINLIEERMEQTAKARQDLRALVVGENKRLAAVEINRKKLTQMHHLEVNGVEPEKREALVEKLKKSIAELHAQSDQQHRKHELQMLKLHSQLFNFLVYLGMDRCYRKYYVLESMPGIFVEHSPDSLDTCLEQPITNKSQIEIRQQSALPKNRKDLRVYLLKLYGDDEKKTKKKAKHSLENKENQEHRLNGSAEPMDVESDSPEAPTHFELLMCSGDKRSCIVHDSRNGQRQRWAYIYKAEEIDELIKALNPNGLREYELLQELSVLRSLIEQHAKTCPVDLLSLENETMRKKFMAAMESETNRKYGEANFGLPNGTDLNEVMRLHLVDRIIQFENDIYTGDLGRLKVKDMEKWRSDLLGGNYDAQCKLQWGPGGKLEDEAGSDNESHETHEEDDGALLGKYARKPYRDPGMYLAASADTKPLPDSDDEEDQHTNAVSIPIAVHNMASALLQVEQAIGKRFLKEPYGMKKWDPKQEALKLACDSRLHQWEVSLMESTSFAQVFLHLNILHDCIQWRRSTNKSLCKVCRRGSDPEKMLLCDECNAGTHMFCLKPKLRSVPPGNWYCNDCVKSLGLSNGQNEKDKKQATKKKRKFIVEEEDDEATDEEEEEKKDDDMTDEDAEHENEKHDEDVEDDESVTSTPSSSRVNGRILRRPRTRPTSRRLTSKEIEEHAQEDVDSGDVSDDASLTAGEDTIEDESDEEKVCQKCFYDGGEIKCVQCRLFFHLECVHLKRPPRTDFVCKTCKPMPQRPRRRHSNMNGDHDRDEEEPKAKRPRNSLRLSIDKTARPSNGNNNNNNNNSSVNNNNHRRSGRRTNEHMPLNSAALYDLLEQIMKHKAAWPFLRPVLTSEVPDYHQIIKTPMDLAKIKSKLNMGAYQLNEELLSDIQLVFRNCDLYNVEGNEIYDAGCQLERFVIDRCRDMQLPFRPSDMNGEVKAC | no binding | 

Reference: article PMC7644731
